Laboratory results published in publication PMC9709281.
Construct, isoform or probe ends are uncertain for at least one entry. Results from cells or extracts need not show a direct contact. Protein sequences can lack the tags named with them.

Molecular target: T1, ETS1 (Homo sapiens (primary CD4+ T cells)) (UniProt P14921)
T1 sequence (looked up, limits assumed): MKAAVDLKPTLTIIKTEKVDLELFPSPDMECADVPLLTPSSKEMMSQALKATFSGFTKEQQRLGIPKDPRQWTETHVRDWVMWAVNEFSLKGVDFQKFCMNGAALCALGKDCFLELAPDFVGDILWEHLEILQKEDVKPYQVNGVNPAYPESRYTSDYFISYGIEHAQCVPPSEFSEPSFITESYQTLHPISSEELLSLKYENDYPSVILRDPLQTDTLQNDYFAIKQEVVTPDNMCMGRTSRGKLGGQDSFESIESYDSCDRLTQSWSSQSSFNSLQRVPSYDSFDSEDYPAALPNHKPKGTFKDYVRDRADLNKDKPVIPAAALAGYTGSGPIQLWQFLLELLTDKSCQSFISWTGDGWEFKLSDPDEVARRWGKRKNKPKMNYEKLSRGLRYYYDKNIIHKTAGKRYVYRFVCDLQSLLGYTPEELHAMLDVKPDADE
Experiment: EMSA supershift
Details: ETS1 antibody, additional C-specific supershifted complex; 3-6 ug CD4+ T cell nuclear extract, 250 fmol probe, 0.25 mg/ml poly(dI-dC), 20% glycerol, 5 mM MgCl2, 2.5 mM EDTA, 2.5 mM DTT, 250 mM NaCl, 50 mM Tris pH 7.5, 25 C; protein in an extract; label: 5' IRD700

Sequence: CTTGTCACTTCCTCCTGTACTG (double strand) [rs2149092 C (risk) probe]
- binding result: binds
